# From patent US10188633B2, “Identification of small molecules that facilitate therapeutic exon skipping” (The Regents of the University of California, priority 2011, dated 2019)
# For at least one compound, name, drawing or mass did not settle the structure.
# Experiments:
# exon skipping = assay: Counter screens, 16 point titrations and mdx mouse myotubes (validation of lead hits); type: cell-based
# Description: The cell line, which was adapted to allow the screening of thousands of compounds in multiple replicates, was obtained from Dr. Qi Lu. […]
# [1] = tested on: cyclic nucleotide-gated Ca+2 channels; details: cited from earlier work
# [2] = tested on: plasmalemmal Na+/Ca+2 and Na+/H+ exchange; details: cited from earlier work
# [3] = tested on: caffeine-induced current (Na+/Ca+2 exchange); details: by blocking Na+/Ca+2 exchange; cited from earlier work
# [4] = tested on: Nonselective cation channel; details: cited from earlier work
smiles,measurement,setting,value
N=C(NCc1ccc(Cl)c(Cl)c1)NC(=O)c1nc(Cl)c(N)nc1N [DICHLOROBENZAMIL],efficacy in counter screen and on mdx mouse myotubes,exon skipping,showing efficacy in counter screen and on mdx mouse myotubes
same,IC50,[1],38 to 50 µM
same,IC50,[2],10 µM
same,concentration blocking caffeine-induced current,[3],50 to 100 µM
same,concentration as nonselective cation channel blocker,[4],25 µM
